# Test results taken from publication PMC7819943, “Rice protein-binding microarrays: a tool to detect cis-acting elements near promoter regions in rice”.
# Amino acid sequences for entries named in this document (tags omitted).
# UniProt Q0JBA9, entry or part of it: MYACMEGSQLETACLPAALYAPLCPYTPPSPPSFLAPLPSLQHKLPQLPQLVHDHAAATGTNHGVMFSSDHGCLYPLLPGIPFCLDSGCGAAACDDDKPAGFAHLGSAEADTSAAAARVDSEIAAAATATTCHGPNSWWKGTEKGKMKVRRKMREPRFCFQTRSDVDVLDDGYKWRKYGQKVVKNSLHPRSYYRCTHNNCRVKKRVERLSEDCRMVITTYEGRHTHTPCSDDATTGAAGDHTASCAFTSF
# This is one part of the list.
# Molecular target: OsWRKY34 (Oryza sativa, UniProt Q0JBA9 1-250)
# Assay: protein-binding microarray (RPBM); PBS, 2% BSA, 51.3 ng/ul salmon testes DNA, 50 uM zinc acetate, 200 nM TF, 25 C, 1 h; high values mean tight binding
# Settings: protein: recombinant; tags: N-terminal polyhistidine and DsRed monomer fusion (pET32a); label: CyDye5-dUTP incorporated in the synthesized complementary strand; 3' TTTTT single-stranded linker to array surface; dsDNA, one strand shown
# How it was run: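 Ni–NTA purification followed expression in E. coli BL21-CodonPlus of transcription factors fused N-terminally to a polyhistidine tag and DsRed. At 200 nM in PBS with 2% BSA, salmon testes DNA and 50 µM zinc acetate, the protein was incubated for 1 h at 25 °C with a custom Agilent array that had been primer-extended with Cy5-dUTP and blocked with 2% BSA. After washing, the array was read on an Axon 4000B scanner. The binding signal is per-feature fluorescence intensity in arbitrary units.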
row,Sequence,binding signal
1,GTTATATTATTGCACCGATAACATTTCTTTATATACCAATCGGAGTCACCTAGTGCAG,8370 fluorescence intensity (a.u.)
2,TATGTTGCGTTTTAGTTTTAGTTCCATATATTTTAGCACACGGAGTCACCTAGTGCAG,9740 ± 807 fluorescence intensity (a.u.)
3,TTTAGCGATTTGTTTTATGTTTTGAGTTTAGTGTTGTGATCGGAGTCACCTAGTGCAG,9320 fluorescence intensity (a.u.)
4,GTTTATTGTATCATCCAGGTCCAAAGCCACTTTTGACCGTCGGAGTCACCTAGTGCAG,8460 fluorescence intensity (a.u.)
5,ACAGATACAGCATGCAGCTCCGGTACTTATCAGGCAAATACGGAGTCACCTAGTGCAG,8610 fluorescence intensity (a.u.)
6,GGGAGAGAGAAATAATCCTTAAAATCATTCAAACCTTTTGCGGAGTCACCTAGTGCAG,8190 fluorescence intensity (a.u.)
7,AACTGGTCGCCTGCTGATTTATTTTTGTTTGTCAGCCCTTCGGAGTCACCTAGTGCAG,8580 fluorescence intensity (a.u.)
8,GAAATCTCCCGTTTCTCCCGTTGCCTTGCGCCGCCGCCAACGGAGTCACCTAGTGCAG,9980 fluorescence intensity (a.u.)
9,AAACAACAATACTTCGTCTCACATTTCTCTCTTTCTTTTACGGAGTCACCTAGTGCAG,8430 fluorescence intensity (a.u.)
10,ATCTCCATCTGGCGAGCAGAGGCCGGGGAGGGAGGGGCGCCGGAGTCACCTAGTGCAG,14100 fluorescence intensity (a.u.)
11,GCATCTACTTCCCACGTCATCATCTTCATCATTAATATAACGGAGTCACCTAGTGCAG,11500 fluorescence intensity (a.u.)
12,TTTCATCTCCTAGCTAGCTTGTTGTACTGCATCTGTAATACGGAGTCACCTAGTGCAG,8270 fluorescence intensity (a.u.)
13,GTCGCTTCTTGCACAGTTGGTACGATGCACGTCATGTTATCGGAGTCACCTAGTGCAG,8680 fluorescence intensity (a.u.)
14,AGCCGCCCATTTTATGCAGTCCATTCCAAAGACCGACGAACGGAGTCACCTAGTGCAG,8230 fluorescence intensity (a.u.)
15,CCCAACAATTCCGTCGCCCTGGACTTATCACGCGCCGTAGCGGAGTCACCTAGTGCAG,9210 fluorescence intensity (a.u.)
16,TTTCGCATTTCGGTGGACTGCTAATCCCGTAATCCGTGTCCGGAGTCACCTAGTGCAG,9110 fluorescence intensity (a.u.)
17,ATACATTGCCGAGGATGGGAGTCAGTCTACATGGAACCTCCGGAGTCACCTAGTGCAG,8620 fluorescence intensity (a.u.)
18,ATCATTTCGCACATTAACTCTCTCTCTCTCTCTCCATTTTCGGAGTCACCTAGTGCAG,15200 fluorescence intensity (a.u.)
19,CTTTTATATAGCTTTGTCTAGTCTTGTGAATTCTCAATTGCGGAGTCACCTAGTGCAG,8530 fluorescence intensity (a.u.)
20,ATTTGGGGTTTGGATACTTGAACTTTATTTTGACTTCTGACGGAGTCACCTAGTGCAG,14000 fluorescence intensity (a.u.)
21,AGCTAATCCGTTTTCGGGACCGAGCGCACCCTAATCTCCACGGAGTCACCTAGTGCAG,8490 fluorescence intensity (a.u.)

row,Sequence,binding signal
1,TTCTTATTTCGACCTGGTTTAGTTCCCAACTTTTTCTTCACGGAGTCACCTAGTGCAG,10900 fluorescence intensity (a.u.)
2,ATATGTTTTATGTGTCTTTTAATTCTCTATTTTACACTTCCGGAGTCACCTAGTGCAG,11100 fluorescence intensity (a.u.)
3,AATCGGTTTAACTCAAAATCCCAACTCCGAACGCCTCTTCCGGAGTCACCTAGTGCAG,8100 fluorescence intensity (a.u.)
4,CAGTTTAAATGCAGCGTTGGTTTTCAGCGTCCAACTTTTTCGGAGTCACCTAGTGCAG,8670 fluorescence intensity (a.u.)
5,GAAGCTAATACACCTTCGCTACATCTCCTTGCTTAGCACCCGGAGTCACCTAGTGCAG,8160 fluorescence intensity (a.u.)
6,TGGAGCCCCTGCTGTTCTTGTCCATTGTTTTAGCTATATACGGAGTCACCTAGTGCAG,9060 fluorescence intensity (a.u.)
7,ACCTAGCTAACTCACTCACTCACTCCTTCTTCTTGCGACCCGGAGTCACCTAGTGCAG,10400 fluorescence intensity (a.u.)
8,ATCAGGATCATTCAGTCCACCAAGTTTACATGCCTACATCCGGAGTCACCTAGTGCAG,8190 fluorescence intensity (a.u.)
9,CGCGGCATCGTTTGGTGGAGGGGTTGGAGACCGGCTTGGCCGGAGTCACCTAGTGCAG,8310 fluorescence intensity (a.u.)
10,GCCTTTTTCCGAGTTCCGACTGCTTTTCGGCTTTTTTCCCCGGAGTCACCTAGTGCAG,13800 fluorescence intensity (a.u.)
11,AATCAGTAATCACTGAGTCGTTACTGCTGCTTTCCGGTTGCGGAGTCACCTAGTGCAG,8110 fluorescence intensity (a.u.)
12,ATCGCTGCCTCGCTCACGCACGCGCGCTCTACCTACCTGACGGAGTCACCTAGTGCAG,12300 fluorescence intensity (a.u.)
13,GTTCCTGTACAAATCTCATTTGGTCTCGTTATCTGTTTTACGGAGTCACCTAGTGCAG,8840 fluorescence intensity (a.u.)
14,TACCACACACACCTTGTTATATAGCTAGACACACCTTACCCGGAGTCACCTAGTGCAG,9270 fluorescence intensity (a.u.)
15,ATGTTGCCCTTTGTTCTGCTGTTTCCTGGTTATATGGGATCGGAGTCACCTAGTGCAG,17500 fluorescence intensity (a.u.)
16,CAGCCTAGCAAAAACCCAACTACTGTATACTACAACTGTACGGAGTCACCTAGTGCAG,8230 fluorescence intensity (a.u.)
17,ATTAGCTATCATCATTTTTGGCTTGTTTTTTCGATTACTTCGGAGTCACCTAGTGCAG,8850 fluorescence intensity (a.u.)
18,TCGTTGGATAATATTTTGTCGCATTGCCTGAGATAATTCCCGGAGTCACCTAGTGCAG,8890 fluorescence intensity (a.u.)
19,TCCAGTCCGTTCACTCCCTTCGCACACGAATCTCAAAGCGCGGAGTCACCTAGTGCAG,9830 fluorescence intensity (a.u.)
20,GCTGGGGTTTGATACTACAGGAGATGATCCTGCTCTCATCCGGAGTCACCTAGTGCAG,11500 fluorescence intensity (a.u.)
21,CATGTTATTACTACCTCGTTTTACGTGAAACACTTTATCTCGGAGTCACCTAGTGCAG,8890 fluorescence intensity (a.u.)

# A stretch from further up:
row,Sequence,binding signal
8,ATCAGGATCATTCAGTCCACCAAGTTTACATGCCTACATCCGGAGTCACCTAGTGCAG,8190 fluorescence intensity (a.u.)
9,CGCGGCATCGTTTGGTGGAGGGGTTGGAGACCGGCTTGGCCGGAGTCACCTAGTGCAG,8310 fluorescence intensity (a.u.)
